No constants are given. Whether binding was seen depends on the method and setting. Binding seen in cells or lysates may run through a third protein. Some results given as binding are weak or reduced against the parent protein; the word gives no strength.

Amino acid sequences for entries named in this document (tags omitted).
UniProt Q00899: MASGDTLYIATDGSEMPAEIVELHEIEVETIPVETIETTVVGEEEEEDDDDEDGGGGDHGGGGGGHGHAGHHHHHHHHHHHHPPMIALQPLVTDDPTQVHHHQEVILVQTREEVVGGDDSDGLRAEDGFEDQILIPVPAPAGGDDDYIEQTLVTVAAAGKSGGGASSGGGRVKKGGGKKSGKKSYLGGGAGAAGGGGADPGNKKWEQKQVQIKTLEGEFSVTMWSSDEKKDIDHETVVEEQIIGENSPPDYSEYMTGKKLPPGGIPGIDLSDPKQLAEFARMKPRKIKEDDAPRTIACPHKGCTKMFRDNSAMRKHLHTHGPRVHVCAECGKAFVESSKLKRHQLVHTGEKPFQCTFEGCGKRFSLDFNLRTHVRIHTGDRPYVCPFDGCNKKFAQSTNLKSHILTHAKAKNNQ
UniProt Q6NZM9: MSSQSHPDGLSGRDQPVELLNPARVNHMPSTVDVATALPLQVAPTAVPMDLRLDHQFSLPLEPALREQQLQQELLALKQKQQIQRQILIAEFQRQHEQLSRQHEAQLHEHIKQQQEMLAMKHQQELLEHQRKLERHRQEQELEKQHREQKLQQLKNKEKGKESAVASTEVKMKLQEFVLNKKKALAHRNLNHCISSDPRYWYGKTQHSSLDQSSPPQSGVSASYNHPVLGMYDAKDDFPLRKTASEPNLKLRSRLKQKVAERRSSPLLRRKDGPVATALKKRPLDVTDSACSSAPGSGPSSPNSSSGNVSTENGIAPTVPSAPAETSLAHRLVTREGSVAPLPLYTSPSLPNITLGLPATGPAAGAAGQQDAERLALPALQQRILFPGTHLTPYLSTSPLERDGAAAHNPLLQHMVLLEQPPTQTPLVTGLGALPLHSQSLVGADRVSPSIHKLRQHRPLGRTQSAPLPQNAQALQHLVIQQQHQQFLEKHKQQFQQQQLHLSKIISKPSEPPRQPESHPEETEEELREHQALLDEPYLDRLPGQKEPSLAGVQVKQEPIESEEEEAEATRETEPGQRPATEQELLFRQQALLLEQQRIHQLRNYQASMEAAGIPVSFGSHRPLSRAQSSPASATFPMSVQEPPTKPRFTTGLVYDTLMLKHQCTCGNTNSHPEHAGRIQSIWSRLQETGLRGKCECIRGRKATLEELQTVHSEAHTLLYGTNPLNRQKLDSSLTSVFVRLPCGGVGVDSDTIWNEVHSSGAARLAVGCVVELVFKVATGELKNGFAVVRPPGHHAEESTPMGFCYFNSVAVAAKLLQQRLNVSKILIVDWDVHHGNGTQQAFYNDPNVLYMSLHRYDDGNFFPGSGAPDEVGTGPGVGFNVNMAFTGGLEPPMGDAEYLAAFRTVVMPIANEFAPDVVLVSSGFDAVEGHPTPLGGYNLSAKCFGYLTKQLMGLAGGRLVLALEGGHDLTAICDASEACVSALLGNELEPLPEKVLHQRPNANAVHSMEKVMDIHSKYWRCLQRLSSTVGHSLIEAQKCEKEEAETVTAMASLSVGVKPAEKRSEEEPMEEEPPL

The assay has as its target Yin yang-1 transcription factor (YY1), endogenous, from mouse left ventricular myocardium (mouse) (UniProt Q00899). Put plainly: co-immunoprecipitation and western blot, mouse LV myocardium (FIG. 6b). A general note: In western blotting, separated proteins are transferred to a membrane and probed.

Regarding “Histone deacetylase 4 (HDAC4), endogenous, from mouse left ventricular myocardium (from UniProt Q6NZM9 1-1076) (enzyme)”, the binding result is on record as “binds”.

The record behind these values is patent US20240417727A1, “ANTAGONIST OF THE MIRNA-106B-5P TO TREAT OR PREVENT THE CARDIOTOXICITY THAT IS DEVELOPED IN ONCOLOGIC PATIENTS AFTER RECEIVING ANTHRACYCLINE-BASED CHEMOTHERAPY” (UNIVERSIDAD DE MURCIA, priority 2021, published 2024).
